Binding screen against folded nucleic acids

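Each compound is printed as two spots on a slide made to bind it covalently, so it has no test concentration; the read-out is fluorescence of the bound, labelled oligonucleotide. For the PreQ1, TPP and SAM-II riboswitches the laboratory earlier reported (doi:10.1038/s41467-019-09493-3) 1 µM RNA, 2 h, and a rule that included a mean Z-score above 3 (spot signal-to-noise against the whole library), a score well above that on a control array, and duplicate spots agreeing (coefficient of variation under 100). The data file gives only the calls; its cut-offs may differ, and compounds hitting several targets are kept. The calls come from the array alone, and fixing a compound to the slide can hide its binding.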 Key: active = hit, inactive = tested without a hit. Compounds were drawn at random from those tested, without regard to their results. A target missing from an entry has no call listed here. A dash means that no call is listed here.

Targets (5′ to 3′):
T1: PreQ1 riboswitch RNA pseudoknot, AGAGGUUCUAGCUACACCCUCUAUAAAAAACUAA. From B. subtilis. About 170 hits among about 24,000 compounds.
T2: TPP riboswitch RNA three-way junction, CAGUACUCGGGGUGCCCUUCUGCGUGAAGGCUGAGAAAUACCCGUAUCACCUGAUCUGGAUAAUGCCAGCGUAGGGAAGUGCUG. About 160 hits among about 24,000 compounds.
T3: SAM-II riboswitch RNA pseudoknot, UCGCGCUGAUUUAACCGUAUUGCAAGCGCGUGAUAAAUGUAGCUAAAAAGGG. About 200 hits among about 21,000 compounds.

* CNCCCn1cc(-c2ccc(C)c3ncccc23)nn1 | T1: inactive; T2: inactive; T3: inactive
* CN(Cc1cnccn1)C(=O)c1cccc(S(=O)(=O)N2CCNCC2)c1 | T1: inactive; T2: inactive; T3: inactive
* CN(Cc1nc(-c2ccncc2)no1)C(=O)C(O)c1cccc(Cl)c1 (stereo not drawn) | T1: inactive; T2: inactive; T3: inactive
* OCC#Cc1ccc(CN2CCC(c3ccnc(-c4ccccc4)c3)C2)s1 (stereo not drawn) | T1: inactive; T2: inactive; T3: inactive
* OCCNCCNCc1ccc(-c2ccccc2F)o1 | T1: inactive; T2: inactive
* COCCN[C@H]1CS(=O)(=O)C[C@@H]1S(=O)(=O)c1ccc(Cl)cc1 | T1: inactive; T2: inactive
* COc1ccc(CCNc2cc(C)nc3cc(-c4ccc(OC)c(OC)c4)nn23)cc1OC | T1: inactive; T2: inactive
* O=C(c1conc1-c1ccccc1)N1CCC2(CCCN(CCO)C2=O)C1 (stereo not drawn) | T1: inactive; T2: inactive; T3: inactive
* O=c1c2c(nc(NCCCO)n1-c1ccccc1)-c1ccccc1CC21CCCC1 | T1: inactive; T2: inactive; T3: inactive
* CCNc1oc(-c2ccc(S(=O)(=O)N(CC)CC)cc2)nc1C#N | T1: inactive; T2: inactive
* COc1ccccc1Nc1nc2ccccc2n2c(C)nnc12 | T1: inactive; T2: inactive; T3: inactive
* CC(C)CC1(CO)CCCN(Cc2ncc[nH]2)C1 (stereo not drawn) | T1: inactive; T2: inactive; T3: inactive
* S=c1c2nc[nH]c2ncn1CCSC1=NC=NC2=NC=NC21 (stereo not drawn) | T1: inactive; T2: inactive; T3: inactive
* Cn1c(=O)n(C)c2cc(C(O)COc3ccc(CNC(C)(C)CO)cc3)ccc21 (stereo not drawn) | T1: inactive; T2: inactive
* CNC(=O)[C@@H]1C[C@@H](N)CN1C(=O)[C@@H](OC)c1ccccc1 | T1: inactive; T2: inactive; T3: inactive
* CCCCOc1ccc(C2c3c(-c4ccccc4O)n[nH]c3C(=O)N2CCO)cc1 (stereo not drawn) | T1: inactive; T2: inactive
* COc1cccc2c1OCC(c1nc(-c3ccco3)nn1CCO)C2 (stereo not drawn) | T1: inactive; T2: inactive; T3: inactive
* CC(=O)c1ccc(Nc2ccnc3cc(Cl)ccc23)cc1 | T1: inactive; T2: inactive; T3: inactive
* CO[C@H]1C[C@@H](O)C12CCN(S(=O)(=O)N1CCOCC1)CC2 | T1: inactive; T2: inactive; T3: inactive
* Cc1cccn2c(CNC(=O)[C@@H]3C[C@@H](NC(=O)c4cccs4)CN3)cnc12 | T1: inactive; T2: inactive; T3: inactive
* C=C1C(=O)O[C@H]2[C@@H]1CC/C(C)=C\CC[C@@]1(C)O[C@@H]21 | T1: inactive; T2: inactive; T3: inactive
* CCOc1ccc(-c2[nH]c3c(C#N)cnn3c2NC2CCCCC2)cc1 | T1: inactive; T2: inactive
* N#CC1=C(N)Oc2c(c(=O)sc3ccccc23)C1c1c(F)cccc1Cl (stereo not drawn) | T1: inactive; T2: inactive; T3: inactive
* CCN(C)C[C@@H]1CN(c2nnc(C)s2)C[C@@H]1CO | T1: inactive; T2: inactive; T3: inactive
* CCOCc1nc2c(c(NC(C)c3n[nH]c(C)n3)n1)CCNCC2 (stereo not drawn) | T1: inactive; T2: inactive; T3: inactive
* Cc1ccc(NC(=O)N2CCN(C(=O)c3nonc3N)CC2)cc1 | T1: inactive; T2: inactive
* COc1ccc(C(=O)c2ccc(N)cc2)cc1OC | T1: inactive; T2: inactive; T3: inactive
* OCc1cc2cc3c(cc2nc1Cl)CCC3 | T1: inactive; T2: inactive; T3: inactive
* Cc1cc(C)n(Cc2ccc(C(=O)NCC[C@H](O)C(=O)O)cc2)n1 | T1: inactive; T2: inactive; T3: inactive
* Cc1ccc2nc(Cc3ccc4nc(N)sc4c3)oc2c1 | T1: inactive; T2: inactive; T3: inactive
* O=C(O)C1OCC2(CO1)COC(C(=O)O)OC2 (stereo not drawn) | T1: inactive; T2: inactive; T3: inactive
* O=c1[nH]c(=O)n([C@H]2C[C@@H](O)[C@@H](CO)O2)cc1I | T1: inactive; T2: inactive; T3: inactive
* CC1(C)CC(=O)C=C(NCCc2c[nH]c3ccccc23)C1 | T1: inactive; T2: inactive; T3: inactive
* N#CC1=C(N)Oc2c(ccc3ccccc23)C1c1cccs1 (stereo not drawn) | T1: active; T2: inactive; T3: inactive
* CNc1oc(-c2cccs2)nc1S(=O)(=O)c1ccccc1 | T1: inactive; T2: inactive
* COc1cccc([C@@H]2C[C@H](c3ccc(C(C)C)cc3)n3nc(N)nc3N2)c1 | T1: inactive; T2: inactive; T3: inactive
* COc1ccc(CCNCc2ccccc2C(F)(F)F)cc1OC | T1: inactive; T2: inactive; T3: inactive

4 of the entries, repeated:

structure,T1,T2,T3
CCCCOc1ccc(C2c3c(-c4ccccc4O)n[nH]c3C(=O)N2CCO)cc1 (stereo not drawn),inactive,inactive,-
N#CC1=C(N)Oc2c(c(=O)sc3ccccc23)C1c1c(F)cccc1Cl (stereo not drawn),inactive,inactive,inactive
OCc1cc2cc3c(cc2nc1Cl)CCC3,inactive,inactive,inactive
N#CC1=C(N)Oc2c(ccc3ccccc23)C1c1cccs1 (stereo not drawn),active,inactive,inactive

Source: the ROBIN nucleic acid binder screens (doi:10.1002/anie.202211358).